Reference: PubChem BioAssay AID504834 (National Center for Advancing Translational Sciences (NCATS), 2011)
In all, about 320,000 compounds went through this assay and about 22,000 (6.9%) were called active. This list was built around the results that the source calls inconclusive (neither active nor inactive); the mix of calls is not that of the screen. Calls come from the whole dose curve; as a rule, active = well fitted inhibition curve with a large enough effect; inconclusive = small, poorly fitted or top-dose-only effect, or another doubt; inactive = no such curve, though single readings can be large or run the other way. Where the call is inconclusive, the potency comes from a doubtful curve fit.
% is set by controls: 0 for no effect and ±100 for the full control effect; potency is the fitted concentration of half-maximal effect.

Test: Primary qHTS for delayed death inhibitors of the malarial parasite plastid, 96 hour incubation
Details: P. falciparum luciferase reporter growth; series mostly up to 28.7 µM; activity change, negative = inhibition: at the top concentration
How it was run: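 Two parasite generations (96 h, 37 C, 5% CO2) of compound exposure in infected erythrocytes (0.05% parasitemia, 2% hematocrit). Luciferase-reporter P. falciparum; decreased luminescence indicates inhibited growth, aimed at apicoplast-acting delayed death.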
With Cc1ccccc1NC(=O)COc1coc(CN2CCN(Cc3ccccc3)CC2)cc1=O the Potency was inconclusive: 10.4 µM [inhibitor, single point].
For CC(C)C(=O)Nc1nnc(SCC(=O)NCc2cccs2)s1, the Potency was inconclusive: 0.928 µM [inhibitor, partial curve, poor fit].
With COc1ccc(CCNc2cc(N3CCN(C(=O)c4ccc(C)cc4)CC3)ccc2[N+](=O)[O-])cc1OC the Potency was inconclusive: 2.94 µM [inhibitor, partial curve].
With O=C(Cn1c(-c2ccc(Cl)cc2)noc1=O)N1CCN(c2ccccc2F)CC1 the Potency was inconclusive: 18.5 µM [inhibitor, single point].
For CNC(=O)c1ccc(NC(=O)C2CCN(c3ncnc4sc(C)c(C)c34)CC2)cc1, the Potency was inconclusive: 18.5 µM [inhibitor, single point].
In the case of Cc1ccc(-c2nn(-c3ccccc3)cc2C=C2C(=O)CC(C)(C)CC2=O)cc1, the Potency is reported as inconclusive: 1.85 µM [inhibitor, full curve, poor fit].
In the case of C=CCn1c(SCc2c(C(=O)OC)sc(N)c2C(=O)OC)nnc1-c1ccc(Br)cc1, the Potency is reported as inconclusive: 4.15 µM [inhibitor, partial curve, poor fit].
In the case of Cc1nonc1NC(=O)c1ccc(Cl)c(S(=O)(=O)N2CCCCC2)c1, the Potency is reported as active: 2.62 µM.
With COc1cccc2c1Oc1ncccc1N(C(=O)CCC(=O)NCc1ccc(C)cc1)C2 the “activity change, negative = inhibition” value was inactive: 19.5%.
With N=C1c2ccccc2CN1NC(=O)C1CC1 the “activity change, negative = inhibition” value was inactive: -1.06%.
In the case of O=c1[nH]c(/C=C\c2cccc(C(F)(F)F)c2)nc(O)c1[N+](=O)[O-], the Potency is reported as inconclusive: 18.5 µM [inhibitor, single point].
In the case of O=C1N(CN2CCOCC2)c2ccccc2C12OCC(CCl)O2 (stereo not drawn), the “activity change, negative = inhibition” value is reported as inactive: 0%.
In the case of O=CNNC(=O)c1cccc([N+](=O)[O-])c1, the “activity change, negative = inhibition” value is reported as inactive: 59.1%.
With O=C(CSCc1c(Cl)cccc1Cl)NCc1ccco1 the Potency was active: 13.1 µM.
With Cc1ccc(NC(=O)c2oc3c(c2C)C(=O)CC(C)(C)C3)cc1 the “activity change, negative = inhibition” value was inactive: 2.99%.
For NC(=O)C1CCN(C(=O)c2ccc(Oc3ccccc3)cc2)CC1, the “activity change, negative = inhibition” value was inactive: 14.1%.
In the case of COc1ccc(Br)cc1CN(C)CC(O)COc1ccc(Br)cc1 (stereo not drawn), the Potency is reported as inconclusive: 18.5 µM [inhibitor, single point].
In the case of COc1ccccc1NC(=O)c1c(N=Cc2c(O)ccc3ccccc23)cnn1C, the Potency is reported as inconclusive: 13.1 µM [inhibitor, single point].
With O=C1CC(=O)Nc2cc(S(=O)(=O)NCc3cccs3)ccc2N1 the “activity change, negative = inhibition” value was inactive: 35.9%.
For CCOc1ccc(-n2c(Cc3cc(=O)[nH]c(=O)[nH]3)nnc2SCc2cccnc2)cc1, the Potency was active: 13.1 µM.
For O=C(COC(=O)c1ccccn1)NC1CCCCC1, the “activity change, negative = inhibition” value was inactive: 75.1%.
With COc1ccccc1N(Cc1ccccc1)S(=O)(=O)c1cccc(C(=O)Nc2ccc(C)cn2)c1 the Potency was active: 1.85 µM.
For O=C(Nc1ccccc1)N(Cc1ccccc1)C1=NCCS1, the Potency was inconclusive: 0.147 µM [inhibitor, full curve, poor fit].
For Cc1cc(=O)[nH]c(-n2nc(C)c(Oc3ccccc3O)c2C)n1, the “activity change, negative = inhibition” value was inactive: 11%.
In the case of O=c1[nH]c2ccc(Cl)cc2c(O)c1-c1ccccc1, the “activity change, negative = inhibition” value is reported as inactive: -9.79%.
In the case of O=C(Nc1nccs1)C(Cl)(Cl)Cl, the “activity change, negative = inhibition” value is reported as inactive: -17.2%.
For CCn1cnc2c([N+](=O)[O-])c(NS(=O)(=O)c3ccc(C)cc3)ccc21, the Potency was inconclusive: 18.5 µM [inhibitor, single point].
In the case of CC1(c2ccc(OC(F)F)cc2)NC(=O)N(CC(=O)Nc2ccc3c(c2)OCO3)C1=O (stereo not drawn), the “activity change, negative = inhibition” value is reported as inactive: -10.4%.
In the case of Cc1[nH]c(=S)sc1Cc1ccc(Cl)c(Cl)c1, the “activity change, negative = inhibition” value is reported as inactive: 29.6%.
With C=CCc1ccccc1OCC(O)CN1CCN(c2ccccc2F)CC1 (stereo not drawn) the Potency was inconclusive: 20.8 µM [inhibitor, single point].
For O=C(Cc1ccccc1)NCC(=O)N/N=C/c1ccc([N+](=O)[O-])s1, the Potency was active: 5.22 µM.
For COc1ccc(F)cc1C(=O)C1CCCN(C(=O)CSc2ccccn2)C1 (stereo not drawn), the “activity change, negative = inhibition” value was inactive: -26.6%.
In the case of O=C1NC(=O)N(c2ccc3c(c2)OCO3)C(=O)/C1=C/c1ccc(N2CCCC2)o1, the “activity change, negative = inhibition” value is reported as inactive: 1.13%.
For Cn1ncc([N+](=O)[O-])c1C(=O)n1nnc2ccccc21, the Potency was inconclusive: 10.4 µM [inhibitor, single point].
For O=C(CCN1C(=O)/C(=C/c2ccc(Cl)cc2)SC1=S)NC1C=CS(=O)(=O)C1 (stereo not drawn), the “activity change, negative = inhibition” value was inactive: 4%.
With Cc1cccc(N2CCN(C(=O)c3cccc(N4C(=O)C5C6C=CC(C6)C5C4=O)c3)CC2)c1C (stereo not drawn) the Potency was inconclusive: 18.5 µM [inhibitor, single point].
With CC(=O)Nc1ccc(NS(=O)(=O)c2c(Cl)cccc2Cl)cc1 the Potency was inconclusive: 0.0033 µM [inhibitor, full curve, poor fit].
For CCCCCCCCCn1ccc(=N)cc1, the Potency was inconclusive: 0.294 µM [inhibitor, full curve, poor fit].
With Cc1nc2c(c(=O)n1CCC1=CCCCC1)c1nc3ccccc3nc1n2/N=C/c1ccco1 the Potency was active: 9.28 µM.
With Cc1ccc(OCC(=O)Nc2cccc(S(=O)(=O)N3CCCCCC3)c2)c([N+](=O)[O-])n1 the “activity change, negative = inhibition” value was inactive: -16.3%.
For Cc1nc2cc(-c3cccc(F)c3)nn2c(C)c1CCC(=O)NC(C)CCc1ccco1 (stereo not drawn), the Potency was active: 10.4 µM.
In the case of O=C(O)C1C(c2ccccc2)C(C(=O)Oc2ccccc2)C1c1ccccc1 (stereo not drawn), the Potency is reported as inconclusive: 13.1 µM [inhibitor, single point].
For O=c1[nH][nH]c(-c2ccccc2O)c1C(C[N+](=O)[O-])c1ccccc1 (stereo not drawn), the “activity change, negative = inhibition” value was inactive: -3.8%.
In the case of c1ccc2cc(OCCN3CCCC3)ccc2c1, the Potency is reported as inconclusive: 2.08 µM [inhibitor, partial curve, poor fit].
For O=C(COc1ccccc1F)Nc1nnc(C2CCCC2)s1, the “activity change, negative = inhibition” value was inactive: -17.2%.
For COC(=O)COc1ccc(/C=N/NC(=O)c2ccc(N(Cc3ccccc3)S(C)(=O)=O)cc2)cc1, the Potency was inconclusive: 4.65 µM [inhibitor, partial curve, poor fit].
In the case of CCNC(=O)CC1C(=O)N(c2ccc(F)cc2)C(=O)N1Cc1ccccn1 (stereo not drawn), the Potency is reported as inconclusive: 1.47 µM [inhibitor, partial curve].
For Cc1ccc(C(=O)N(C)CC(=O)Nc2cccc(F)c2)cc1S(=O)(=O)N1CCCCC1, the “activity change, negative = inhibition” value was inactive: -28.3%.
